A short description of the experiment: qHTS Assay for Lipid Storage Modulators in Drosophila S3 Cells.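 For cell number change: cells counted by Cell Tracker Red CMTPX staining in the red channel.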 As to conditions: BODIPY lipid droplet fluorescence, 18-24 h; for cell number change: measured here: cell count max response, cells fed with added oleic acid. Summed up: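 Drosophila S3 cells loaded with oleic acid (400 uM, as added) and compounds at several concentrations; lipid droplets imaged by 488-nm laser-scanning cytometry, 500–530 nm intensity and object ratio to cell channel. Percent activity normalized to 20 uM Triacsin C.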

Setting [1] is: measured here: lipid fluorescence (Fed channel) AC50, cells fed with added oleic acid.
The mark [2] stands for this setting: measured here: cell number channel AC50, cells fed with added oleic acid.

For 59 compounds, cell number change and AC50 results are on record in PubChem BioAssay AID2685 (National Center for Advancing Translational Sciences (NCATS), 2010).

The other results are listed elsewhere or left out. The main result of the screen is listed elsewhere. These columns were measured beside it and carry no call. Compounds called inactive in the main read-out are mostly missing here. The note in brackets gives the kind of curve behind each potency; many fits are weak.

Consider `CCOc1ccc(-c2ccc(SCC(=O)NC3CCCCC3)nn2)cc1`, for which the cell number change was 14.4%. Besides, the AC50 under setting [1] is 18.4 µM [rising, single point]. For the compound `CCOc1cc(C=O)cc(N=Nc2cccc([N+](=O)[O-])c2)c1O`, the cell number change is -53%. The AC50 under setting [2] was 23.1 µM [falling, single point]. For the compound `NC(=S)N/N=C/c1ccc2ccccc2c1`, the cell number change is -29.5%. The AC50 under setting [2] was 5.8 µM [rising, single point]. The AC50 under setting [1] is 6.51 µM [rising, single point]. As to `Oc1ccc(/C=N/NC(=S)N/N=C/c2ccc(O)cc2)cc1`, the cell number change was 52.9%. In addition, the AC50 under setting [2] is 16.4 µM [rising, single point]. Further, under setting [1], the AC50 is 29.1 µM [rising, single point]. Turning to `Nn1c(SCC(=O)N2CCN(S(=O)(=O)c3ccc(Cl)cc3)CC2)nnc1-c1cccs1`, the AC50 under setting [1] was 4.11 µM [rising, partial curve]. Consider `Cc1ccc(-n2nnnc2SCC(=O)N2CC(=O)Nc3ccccc32)cc1`, for which the cell number change worked out at 33.9%. The AC50 under setting [2] was 0.651 µM [rising, full curve, poor fit].

As to `COc1ccc(C2c3sc(=O)[nH]c3SC3C4CCC(C4)C23)cc1OC` (stereo not given), the cell number change is -32.1%. In addition, under setting [2], the AC50 was 25.9 µM [falling, single point]. Also, under setting [1], the AC50 was 29.1 µM [falling, single point]. For `COc1cc(C(=O)NNC(=O)c2ccc(F)cc2)ccc1OCC(=O)N1CCOCC1`, the cell number change is 0.648%. Further, the AC50 under setting [1] is 16.4 µM [rising, partial curve, poor fit]. As to `Cc1cc(NS(=O)(=O)c2ccc(NC(=O)c3cnc(Cl)c(Cl)c3)cc2)nc(C)n1`, the cell number change worked out at 13.3%. Moreover, under setting [1], the AC50 was 0.411 µM [rising, partial curve, poor fit]. As to `Cc1cc(NC(=O)C2CC2)n(-c2nc3ccccc3s2)n1`, the cell number change is 4.76%. Turning to `O=C1COc2ccc(S(=O)(=O)CCC(=O)N3CCN(c4ccccc4)CC3)cc2N1`, the cell number change was determined as 6.26%. For the same compound, the AC50 under setting [1] is 5.17 µM [rising, single point].

Take `Cc1ccc(/C=N/NC(=O)CSc2nc3ccccc3n2Cc2ccc(Cl)cc2)o1`: the cell number change was found to be 49%. For the same compound, the AC50 under setting [2] was 4.61 µM [rising, partial curve]. Moreover, under setting [1], the AC50 was 29.1 µM [rising, single point]. Consider `COC(=O)c1cc(Br)ccc1N(Cc1cc(OC)cc(OC)c1)S(C)(=O)=O`, for which the cell number change was -3.43%. Further, the AC50 under setting [2] was 1.16 µM [falling, single point]. The AC50 under setting [1] is 18.4 µM [falling, partial curve, poor fit]. In the case of `Cc1ccc(/C(=C\CN2CCCC2)c2ccccn2)cc1`, the cell number change is -2.43%. For the same compound, under setting [1], the AC50 was 0.731 µM [rising, partial curve, poor fit]. Consider `C[C@H](NC(=O)c1ccccc1F)C(=O)N1CCC2(CC1)NCCc1[nH]cnc12`, for which the AC50 under setting [1] was 0.116 µM [rising, single point].

As for `COc1cc(/C=C/C(=O)NC(C)C2CC3CCC2C3)cc(OC)c1OC` (stereo not given), the AC50 under setting [1] is 4.11 µM [falling, full curve]. For `Cn1c(=O)c2cc(S(=O)(=O)NC(Cc3ccccc3)C(=O)NCc3ccco3)ccc2n(C)c1=O` (stereo not given), the cell number change is -13%. As to `COCCCNc1nc2c(-c3cccc(C)c3)nnn2c2ccc(Cl)cc12`, the cell number change was -68%. Also, the concentration at half-maximal activity (AC50) under setting [2] was 7.31 µM [falling, partial curve]. In addition, the AC50 under setting [1] was 7.31 µM [falling, partial curve]. `O=C(c1cc(-c2cccc(O)c2)on1)N1CCCC1`: the cell number change is 7.08%. Under setting [1], the AC50 is 1.16 µM [rising, single point]. With `Cc1cccc(CC(=O)Nc2sc(C(C)C)cc2C(=O)N2CCOCC2)c1`, the cell number change worked out at 84.8%. Also, the AC50 under setting [2] is 6.51 µM [rising, partial curve, poor fit]. Further, under setting [1], the AC50 was 29.1 µM [rising, partial curve]. As to `O=C(CC(c1ccco1)S(=O)(=O)c1ccccc1)c1ccccc1` (stereo not given), the cell number change is -13.1%. Also, under setting [2], the AC50 was 4.61 µM [falling, single point]. In addition, the AC50 under setting [1] is 3.66 µM [falling, single point]. For the compound `COc1cc(C)ccc1OCCOc1ccccc1Cl`, the AC50 under setting [1] is 20.6 µM [rising, single point].

Regarding `O=C(CCc1nnc2n(Cc3ccc(F)cc3)c(=O)c3ccccc3n12)NCCN1CCOCC1`, the cell number change was found to be 10.4%. Further, the AC50 under setting [1] was 6.51 µM [falling, single point]. As for `COc1ccc(C(=O)N2CCN(c3ccc(C)cc3C)CC2)cc1OC`, the cell number change came to 3.58%. Moreover, the AC50 under setting [1] was 4.61 µM [rising, partial curve]. As for `CC(=O)N(CCc1ccccc1C)Cc1cc2cc3c(cc2[nH]c1=O)OCO3`, the cell number change came out at 103%. Moreover, the concentration at half-maximal activity (AC50) under setting [2] was 2.06 µM [rising, full curve]. Further, the AC50 under setting [1] was 2.31 µM [rising, full curve]. In the case of `Cc1ccc(C(=O)Nc2sc(C)c(C)c2C(=O)c2ccccc2)cc1`, the cell number change stood at 11.2%. Under setting [1], the AC50 is 2.91 µM [rising, full curve]. `Cc1cc(C)cc(NS(=O)(=O)c2ccc3[nH]cc(C(=O)N4CCc5ccccc54)c(=O)c3c2)c1`: the cell number change is 3.22%. Under setting [1], the AC50 is 32.6 µM [rising, single point]. With `Fc1cccc(CO/N=C/c2c(-c3ccccc3)nc3ccc(Cl)cn23)c1`, the cell number change was -42.7%. For `O=C(NCc1ccco1)C1(c2ccccc2)CCCC1`, the cell number change worked out at 0.129%. For the same compound, the AC50 under setting [1] was 2.06 µM [falling, partial curve]. On to `COc1cc(C(=O)NC(=S)Nc2ccccc2[N+](=O)[O-])cc(OC)c1OC`, for which the cell number change was found to be 15%. As to `O=C(CC(SCCO)c1ccc(F)cc1)c1ccco1` (stereo not given), the cell number change was 0.149%. As for `CCCCn1c(-c2csc(CC)c2)n[nH]c1=S`, the cell number change is -9.69%. Besides, under setting [1], the AC50 was 0.116 µM [rising, partial curve]. `COc1ccc(CCC(C)Nc2ccccc2F)cc1` (stereo not given): the cell number change stood at 32.4%. The AC50 under setting [2] is 6.51 µM [rising, single point]. Also, under setting [1], the AC50 is 23.1 µM [rising, single point].

Consider `CCc1nc(OCCN(C)C)c2oc3ccccc3c2n1`, for which the cell number change was -31.4%. The AC50 under setting [2] was 32.6 µM [falling, single point].

`COC(=O)C1CCN(C(=O)c2cc(OC)c(OC)c(OC)c2)CC1`: the cell number change stood at 4.9%. The AC50 under setting [1] was 23.1 µM [rising, single point]. As for `O=C(CC1SC(N2CCCCC2)=NC1=O)Nc1cccc(C(=O)O)c1` (stereo not given), the cell number change was -29.8%. Consider `COc1cc(Br)cc2cc(C(=O)N3CCCCC3C)c(=O)oc12` (stereo not given), for which the cell number change is -1.72%. Also, the AC50 under setting [1] was 3.26 µM [rising, single point].

As for `CC(=O)c1ccc(S(=O)(=O)N2CCN(CC(=O)Nc3ccccc3C(=O)NC3CC3)CC2)cc1`, the AC50 under setting [1] is 5.8 µM [falling, full curve]. With `COc1ccccc1CNC(=O)C1=CCN(S(=O)(=O)c2ccc(C)cc2)CC1`, the cell number change amounted to 12.8%. Also, the AC50 under setting [1] was 2.91 µM [rising, full curve]. With `CC(C)(C)c1ccc(C(=O)Nc2nnc(Cc3c[nH]c4ccccc34)s2)cc1`, the cell number change is 30.4%. For the same compound, the AC50 under setting [2] is 4.61 µM [rising, full curve, poor fit].

For `O=C(Nc1ccccc1)N(CCCN1CCOCC1)Cc1cccs1`, the cell number change stood at 30.6%. In addition, the AC50 under setting [2] was 6.51 µM [rising, single point]. Besides, the AC50 under setting [1] is 6.51 µM [rising, single point].

With `CCNC(=S)Nc1cccc(S(=O)(=O)Nc2ccccc2OC)c1`, the cell number change is -5.44%.

On to `COc1ccccc1-c1nn2c(C3COc4ccccc4O3)nnc2s1` (stereo not given), for which the cell number change was -16.3%. In addition, the AC50 under setting [1] is 1.84 µM [rising, full curve, poor fit]. For the compound `COc1ccccc1C(=O)N(Cc1sccc1C)C1CCS(=O)(=O)C1` (stereo not given), the cell number change is -13.1%. For the same compound, the concentration at half-maximal activity (AC50) under setting [1] was 4.11 µM [rising, full curve, poor fit].

Take `COc1ccc([C@@H]2[C@@H]3C(=O)N(C(C)(C)C)C(=O)[C@@H]3[C@]3(Cc4ccccc4)C(=O)N(c4cccc(Br)c4)C(=O)N23)cc1`: the cell number change is -17.4%. In addition, under setting [1], the AC50 was 18.4 µM [falling, single point]. Turning to `COc1cc(-c2cc(OC)c3c(C)oc(C)c3c(=O)c2)ccc1O`, the cell number change is -12.4%. Moreover, under setting [1], the AC50 was 18.4 µM [rising, partial curve].

As to `CN(CC(=O)Nc1ccccc1C(F)(F)F)C(=O)c1cc(-c2cccs2)nn1-c1ccccc1`, the cell number change was -33.9%. Under setting [2], the AC50 was 4.11 µM [falling, full curve, poor fit]. Also, the AC50 under setting [1] is 5.8 µM [falling, partial curve]. Regarding `Cc1noc(C)c1C(=O)Nc1ccc(F)cc1`, the cell number change is 6.92%.

Regarding `Cc1cc(NC(=O)COC(=O)c2ccccc2S(=O)(=O)N(C)c2ccccc2)no1`, the cell number change was -16.2%. Moreover, the AC50 under setting [1] is 0.411 µM [rising, single point].

`CCCCCc1ccc(-c2cn(CCCOCc3ccccc3)nn2)cc1`: the cell number change is 5.18%. Regarding `Cc1cc(C)c(C)c(S(=O)(=O)N2CCN(C(=O)C3CSC4(C)CCC(=O)N34)CC2)c1C` (stereo not given), the cell number change was -25%. In addition, the AC50 under setting [1] was 29.1 µM [rising, single point].

Take `COc1ccccc1N1C(=O)N(C(C)=O)C2C1Nc1ccccc1N2C` (stereo not given): the cell number change was -19%. Under setting [1], the AC50 was 5.8 µM [rising, full curve, poor fit]. With `COc1cc2ncnc(NCc3ccc(Cl)cc3)c2cc1OC`, the cell number change is -11.6%. Further, the AC50 under setting [1] was 5.8 µM [falling, full curve, poor fit]. For the compound `Cc1sc2cc(-c3cccc([N+](=O)[O-])c3)c(-c3cccc([N+](=O)[O-])c3)c[n+]2c1C`, the cell number change was -42.8%. For the same compound, the AC50 under setting [2] was 6.51 µM [rising, partial curve, poor fit]. Further, the AC50 under setting [1] was 6.51 µM [rising, partial curve, poor fit]. With `O=C(NC1CC1)c1cc2c(s1)-c1ccccc1OC2`, the cell number change was -16.4%. Take `CCN(CC)S(=O)(=O)c1cccc(C(=O)N[C@H](C(=O)Nc2nc3ccc(F)cc3s2)C(C)C)c1`: the cell number change was determined as 13.4%. In addition, the AC50 under setting [1] was 8.2 µM [rising, partial curve]. On to `CCOC(=O)N1CCN(C(=O)c2ccc3ccccc3c2)CC1`, for which the cell number change came to 1.32%. As to `Cc1cccc(NC(=O)CCC2CCN(C(=O)C3CC=CCC3)CC2)c1` (stereo not given), the cell number change came out at 3.48%. Moreover, under setting [1], the concentration at half-maximal activity (AC50) is 0.00461 µM [rising, full curve, poor fit]. As to `CCN(Cc1ccccc1)C(=O)CCc1nc(-c2ccc(C)cc2)no1`, the cell number change is -20.2%. For the same compound, the AC50 under setting [1] was 0.731 µM [rising, partial curve, poor fit].
